These are yes or no findings as the source states them, for the method shown. Binding seen in cells or lysates may run through a third protein. Some binding calls cover weakened binding; strength is not graded here.
Columns and labels:
TAP–Bag-1S (human) [1] = biological target: T1, TAP–Bag-1S (human) (UniProt Q99933); test: pull-down; MCF-7 cells transfected with TAP–Bag-1 isoform; 500 μg lysate on IgG Sepharose overnight at 4°C, released with AcTEV protease; bound fraction immunoblotted
T1 sequence: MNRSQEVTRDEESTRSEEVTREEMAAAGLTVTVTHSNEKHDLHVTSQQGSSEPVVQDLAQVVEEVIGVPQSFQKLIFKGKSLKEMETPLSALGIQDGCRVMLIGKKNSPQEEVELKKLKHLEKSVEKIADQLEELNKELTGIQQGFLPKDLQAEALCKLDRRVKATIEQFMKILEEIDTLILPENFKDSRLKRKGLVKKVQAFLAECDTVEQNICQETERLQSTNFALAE

The chains behind the UniProt entries cited, without tags or fusion partners. Residues count along the entry.
UniProt P11021, residues 19-654: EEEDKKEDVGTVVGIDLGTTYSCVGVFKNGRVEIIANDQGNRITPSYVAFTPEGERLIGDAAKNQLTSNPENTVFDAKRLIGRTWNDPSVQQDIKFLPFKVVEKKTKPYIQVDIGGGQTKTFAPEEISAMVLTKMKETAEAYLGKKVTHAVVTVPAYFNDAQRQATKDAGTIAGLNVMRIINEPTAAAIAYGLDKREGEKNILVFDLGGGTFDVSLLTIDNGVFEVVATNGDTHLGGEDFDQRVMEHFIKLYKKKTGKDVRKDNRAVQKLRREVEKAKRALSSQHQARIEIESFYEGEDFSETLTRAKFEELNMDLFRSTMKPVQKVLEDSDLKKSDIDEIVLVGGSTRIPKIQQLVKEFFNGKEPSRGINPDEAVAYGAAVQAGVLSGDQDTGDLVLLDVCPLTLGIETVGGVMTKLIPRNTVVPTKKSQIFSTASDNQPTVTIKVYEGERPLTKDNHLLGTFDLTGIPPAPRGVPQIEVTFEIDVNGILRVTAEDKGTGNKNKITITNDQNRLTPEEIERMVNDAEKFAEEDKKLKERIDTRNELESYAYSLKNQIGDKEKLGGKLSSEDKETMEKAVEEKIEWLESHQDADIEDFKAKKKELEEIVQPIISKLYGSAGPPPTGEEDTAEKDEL
UniProt P0DMV8: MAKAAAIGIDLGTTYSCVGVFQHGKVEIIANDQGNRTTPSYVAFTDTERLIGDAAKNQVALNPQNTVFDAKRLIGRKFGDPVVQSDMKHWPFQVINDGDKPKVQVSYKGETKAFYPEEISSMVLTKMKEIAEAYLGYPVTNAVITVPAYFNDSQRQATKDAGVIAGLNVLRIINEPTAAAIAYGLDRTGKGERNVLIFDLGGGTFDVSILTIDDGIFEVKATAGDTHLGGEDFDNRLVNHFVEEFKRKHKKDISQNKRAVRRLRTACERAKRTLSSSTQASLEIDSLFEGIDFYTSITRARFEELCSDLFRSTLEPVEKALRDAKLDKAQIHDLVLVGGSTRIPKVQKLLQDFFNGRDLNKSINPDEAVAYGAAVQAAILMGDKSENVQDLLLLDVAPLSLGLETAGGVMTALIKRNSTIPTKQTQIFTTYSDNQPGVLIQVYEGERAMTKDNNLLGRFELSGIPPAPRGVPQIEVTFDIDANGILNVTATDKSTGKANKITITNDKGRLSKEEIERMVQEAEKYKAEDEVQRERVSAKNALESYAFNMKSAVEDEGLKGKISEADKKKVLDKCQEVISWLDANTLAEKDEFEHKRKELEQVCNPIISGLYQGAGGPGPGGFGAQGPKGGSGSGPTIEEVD
UniProt P30101, residues 25-505: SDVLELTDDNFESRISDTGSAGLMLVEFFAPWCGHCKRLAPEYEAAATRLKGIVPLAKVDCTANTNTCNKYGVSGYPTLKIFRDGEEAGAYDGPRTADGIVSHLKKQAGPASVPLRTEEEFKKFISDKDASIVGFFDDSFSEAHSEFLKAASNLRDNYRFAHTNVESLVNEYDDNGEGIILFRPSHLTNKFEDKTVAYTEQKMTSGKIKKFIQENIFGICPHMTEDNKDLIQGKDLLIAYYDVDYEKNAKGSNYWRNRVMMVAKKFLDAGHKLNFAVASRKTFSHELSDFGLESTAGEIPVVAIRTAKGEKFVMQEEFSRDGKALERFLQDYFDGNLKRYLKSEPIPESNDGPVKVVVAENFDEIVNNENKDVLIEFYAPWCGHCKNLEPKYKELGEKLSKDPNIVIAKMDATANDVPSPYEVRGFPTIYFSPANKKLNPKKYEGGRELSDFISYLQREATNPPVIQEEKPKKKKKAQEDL
UniProt P54727: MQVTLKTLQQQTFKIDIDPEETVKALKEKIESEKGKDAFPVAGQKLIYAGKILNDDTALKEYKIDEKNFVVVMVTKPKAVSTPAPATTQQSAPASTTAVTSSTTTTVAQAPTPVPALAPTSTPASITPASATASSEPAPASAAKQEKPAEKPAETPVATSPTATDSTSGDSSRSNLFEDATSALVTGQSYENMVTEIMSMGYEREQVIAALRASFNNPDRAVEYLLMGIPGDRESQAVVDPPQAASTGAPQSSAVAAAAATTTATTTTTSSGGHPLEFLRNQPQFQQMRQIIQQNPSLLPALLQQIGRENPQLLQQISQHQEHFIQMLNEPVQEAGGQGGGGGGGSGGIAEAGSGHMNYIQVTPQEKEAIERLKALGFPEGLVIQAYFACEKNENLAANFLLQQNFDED

TAP–Bag-1L (human) [2] = biological target: T2, TAP–Bag-1L (human) (UniProt Q99933); test: as above
T2 sequence: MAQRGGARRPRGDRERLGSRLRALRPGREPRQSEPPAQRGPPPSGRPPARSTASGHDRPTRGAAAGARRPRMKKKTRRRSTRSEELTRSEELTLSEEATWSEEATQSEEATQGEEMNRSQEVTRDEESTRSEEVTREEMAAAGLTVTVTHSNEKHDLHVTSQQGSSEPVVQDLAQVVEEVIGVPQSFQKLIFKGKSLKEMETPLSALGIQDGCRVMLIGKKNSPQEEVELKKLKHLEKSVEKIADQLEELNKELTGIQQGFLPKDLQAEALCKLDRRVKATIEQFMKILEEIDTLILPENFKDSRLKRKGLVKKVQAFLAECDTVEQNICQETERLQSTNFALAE

TAP–Bag-1S (human) [3] = biological target: T1, TAP–Bag-1S (human); test: pull-down; MCF-12A cells transfected with TAP–Bag-1 isoform; 500 μg lysate on IgG Sepharose overnight at 4°C, released with AcTEV protease; bound fraction immunoblotted
TAP–Bag-1L (human) [4] = biological target: T2, TAP–Bag-1L (human); test: as above
[5] = biological target: T3, Bag-1 (endogenous) (human (endogenous in MCF-7, MCF-12A and breast tissue)) (UniProt Q99933); test: co-IP; breast tumor and neighboring normal tissue lysates (12 patients, T-PER extraction, pre-cleaned with protein A/G beads); monoclonal α-Bag-1 on Dynabeads Protein G overnight at 4°C; immunoblot
T3 sequence: T2 sequence

[6] = biological target: T3, Bag-1 (endogenous) (human (endogenous in MCF-7, MCF-12A and breast tissue)); test: co-IP; untransfected MCF-7 and MCF-12A cells; 250 μg extract with monoclonal α-Bag-1 on Dynabeads Protein G overnight at 4°C; uncoupled beads as control; immunoblot

Measured: binding

BiP (from UniProt P11021 19-654)
binds: TAP–Bag-1S (human) [1] | TAP–Bag-1L (human) [2]

Calreticulin (from UniProt P27797 18-417)
binds: TAP–Bag-1S (human) [1] | TAP–Bag-1L (human) [2] | TAP–Bag-1S (human) [3] | TAP–Bag-1L (human) [4]

Hsp70 (from UniProt P0DMV8 1-641)
binds: TAP–Bag-1S (human) [1] | TAP–Bag-1L (human) [2] | [5]

PDIA3 (from UniProt P30101 25-505)
binds: TAP–Bag-1S (human) [1] | TAP–Bag-1L (human) [2]

Rad23B (from UniProt P54727 1-409)
binds: TAP–Bag-1S (human) [1] | TAP–Bag-1L (human) [2] | [5] | [6]

VCP/p97 (from UniProt P55072 1-806)
binds: TAP–Bag-1S (human) [1] | TAP–Bag-1L (human) [2] | [5] | [6]
